# According to article PMC7244324:
# By UniProt entry, the sequences of proteins in these tests, tags left out.
# UniProt P62993: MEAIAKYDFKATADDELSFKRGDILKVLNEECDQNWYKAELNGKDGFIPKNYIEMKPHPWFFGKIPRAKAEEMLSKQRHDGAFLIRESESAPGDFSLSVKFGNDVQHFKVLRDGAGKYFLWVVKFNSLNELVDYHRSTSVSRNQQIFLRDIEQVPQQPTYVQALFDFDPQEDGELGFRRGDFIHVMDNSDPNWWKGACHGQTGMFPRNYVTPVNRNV
# No constants are given. Whether binding was seen depends on the method and setting. Binding seen in cells or lysates may run through a third protein. Some results given as binding are weak or reduced against the parent protein; the word gives no strength. Sequences can lack the tags named with a protein.
# Molecular target: T1, Reptilian reovirus membrane fusion protein p14, wild type, C-terminal eGFP tag (reptilian orthoreovirus) (UniProt Q80FJ1)
# T1 sequence: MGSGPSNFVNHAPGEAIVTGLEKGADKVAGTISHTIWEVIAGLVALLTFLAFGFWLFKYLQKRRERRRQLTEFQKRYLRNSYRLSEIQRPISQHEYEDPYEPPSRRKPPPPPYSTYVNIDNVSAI
# Test: co-IP; GFP-tagged p14 constructs captured from HEK293T lysate on GFP-Trap beads overnight at 4°C (150 mM NaCl, 25 mM HEPES, 1 mM EDTA, 0.5% NP-40, phosphatase and protease inhibitors); blot probed with α-Grb2
substance,measurement,value
Grb2 in HEK293T lysate (from UniProt P62993 1-217),binding,binds
